Publication PMC11240372
No constants are given. Whether binding was seen depends on the method and setting. Binding seen in cells or lysates may run through a third protein. Some entries that bind do so weakly or less than the wild type. Tags and fused reporters may be left off the sequences shown.

The chains behind the UniProt entries cited, without tags or fusion partners. Residues count along the entry.
UniProt Q99MB1, residues 26-905: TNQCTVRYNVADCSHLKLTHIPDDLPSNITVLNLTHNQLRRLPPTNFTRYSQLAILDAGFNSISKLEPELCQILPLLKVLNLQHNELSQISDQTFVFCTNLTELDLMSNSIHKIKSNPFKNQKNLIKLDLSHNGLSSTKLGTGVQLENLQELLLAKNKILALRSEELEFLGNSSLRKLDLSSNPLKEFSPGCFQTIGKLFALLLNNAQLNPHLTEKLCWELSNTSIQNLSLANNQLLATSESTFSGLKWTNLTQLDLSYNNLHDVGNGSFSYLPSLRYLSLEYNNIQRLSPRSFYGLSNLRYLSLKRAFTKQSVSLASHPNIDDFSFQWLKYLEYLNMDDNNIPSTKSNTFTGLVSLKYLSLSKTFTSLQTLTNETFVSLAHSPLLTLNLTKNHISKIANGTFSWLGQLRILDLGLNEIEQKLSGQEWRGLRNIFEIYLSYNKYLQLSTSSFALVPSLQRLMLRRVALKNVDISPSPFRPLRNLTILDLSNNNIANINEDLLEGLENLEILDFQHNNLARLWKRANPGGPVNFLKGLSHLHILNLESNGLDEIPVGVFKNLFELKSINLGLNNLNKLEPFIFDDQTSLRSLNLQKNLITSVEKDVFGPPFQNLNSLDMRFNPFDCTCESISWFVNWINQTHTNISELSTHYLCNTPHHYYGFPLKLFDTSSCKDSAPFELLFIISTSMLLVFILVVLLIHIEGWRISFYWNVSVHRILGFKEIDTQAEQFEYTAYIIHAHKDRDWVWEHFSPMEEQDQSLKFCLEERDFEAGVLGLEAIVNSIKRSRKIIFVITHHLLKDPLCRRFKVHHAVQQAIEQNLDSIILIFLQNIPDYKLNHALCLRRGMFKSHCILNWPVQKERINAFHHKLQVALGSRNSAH

Molecular target: T1, TLR7-HA (murine Tlr7 fused at the 3' end to the influenza hemagglutinin tag) (mouse) (UniProt P58681)
T1 sequence: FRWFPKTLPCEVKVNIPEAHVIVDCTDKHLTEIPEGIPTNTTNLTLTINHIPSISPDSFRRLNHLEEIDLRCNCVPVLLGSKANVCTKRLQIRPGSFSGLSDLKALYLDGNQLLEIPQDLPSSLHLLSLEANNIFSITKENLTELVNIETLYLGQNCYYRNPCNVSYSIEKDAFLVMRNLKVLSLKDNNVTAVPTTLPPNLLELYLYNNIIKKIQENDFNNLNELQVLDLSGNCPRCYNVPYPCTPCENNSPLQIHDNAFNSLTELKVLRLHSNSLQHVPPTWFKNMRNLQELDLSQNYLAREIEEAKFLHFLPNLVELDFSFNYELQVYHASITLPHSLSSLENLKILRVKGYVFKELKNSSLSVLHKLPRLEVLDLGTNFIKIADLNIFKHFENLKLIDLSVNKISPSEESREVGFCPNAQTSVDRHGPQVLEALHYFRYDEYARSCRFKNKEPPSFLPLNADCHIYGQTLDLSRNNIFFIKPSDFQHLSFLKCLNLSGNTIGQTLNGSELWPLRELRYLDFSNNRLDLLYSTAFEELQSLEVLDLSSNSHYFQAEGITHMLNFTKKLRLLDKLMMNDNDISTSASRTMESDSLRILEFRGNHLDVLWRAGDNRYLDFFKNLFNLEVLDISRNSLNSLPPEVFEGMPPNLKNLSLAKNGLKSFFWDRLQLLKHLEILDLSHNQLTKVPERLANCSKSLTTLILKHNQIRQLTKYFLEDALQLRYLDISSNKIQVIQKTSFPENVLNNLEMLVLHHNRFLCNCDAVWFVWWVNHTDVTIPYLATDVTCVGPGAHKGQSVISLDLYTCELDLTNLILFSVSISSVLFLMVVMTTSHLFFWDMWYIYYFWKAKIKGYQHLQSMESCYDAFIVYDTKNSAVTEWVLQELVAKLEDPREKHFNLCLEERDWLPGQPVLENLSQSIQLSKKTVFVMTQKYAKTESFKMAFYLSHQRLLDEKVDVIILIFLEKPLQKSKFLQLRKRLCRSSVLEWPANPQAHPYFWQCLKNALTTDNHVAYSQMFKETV
Assay: co-IP

TLR3-Myc (murine Tlr3 fused at the 3' end to the Myc tag) (from UniProt Q99MB1 26-905) (receptor)
binding: binds
